No constants are given. Whether binding was seen depends on the method and setting. Binding seen in cells or lysates may run through a third protein. Tags and fused reporters may be left off the sequences shown.

Assay [1] has as its target T1, CFP-HO-1ΔC266 in HEK293 cells (human) (UniProt P09601).
T1 sequence: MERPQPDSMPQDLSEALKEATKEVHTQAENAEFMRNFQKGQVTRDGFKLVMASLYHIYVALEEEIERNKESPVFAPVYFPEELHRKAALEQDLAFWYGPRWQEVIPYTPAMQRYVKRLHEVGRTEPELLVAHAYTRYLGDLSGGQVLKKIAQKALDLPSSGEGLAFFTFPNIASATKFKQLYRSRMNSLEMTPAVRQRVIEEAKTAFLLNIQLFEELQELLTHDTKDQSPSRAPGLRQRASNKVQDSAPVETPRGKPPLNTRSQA
Put plainly: FRET or BRET; FLIM-FRET in intact HEK293 cells at 37°C, co-transfected with CFP-HO (donor) and CPR-YFP (acceptor); CFP-HO-1 single transfection as donor control.

In assay [2] the target is T2, CFP-HO-2ΔC289 in HEK293 cells (human) (UniProt P30519).
T2 sequence: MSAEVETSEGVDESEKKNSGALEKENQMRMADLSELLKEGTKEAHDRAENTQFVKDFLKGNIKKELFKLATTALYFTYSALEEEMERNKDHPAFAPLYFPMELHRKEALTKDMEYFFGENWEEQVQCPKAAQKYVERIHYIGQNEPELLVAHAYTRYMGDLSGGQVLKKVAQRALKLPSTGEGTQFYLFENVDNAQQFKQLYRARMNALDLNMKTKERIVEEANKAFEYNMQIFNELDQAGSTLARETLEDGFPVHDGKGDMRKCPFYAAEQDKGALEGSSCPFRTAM
The assay is described as above.

B1: CPR-YFP in HEK293 cells (enzyme, UniProt P16435 1-677)
chain: MGDSHVDTSSTVSEAVAEEVSLFSMTDMILFSLIVGLLTYWFLFRKKKEEVPEFTKIQTLTSSVRESSFVEKMKKTGRNIIVFYGSQTGTAEEFANRLSKDAHRYGMRGMSADPEEYDLADLSSLPEIDNALVVFCMATYGEGDPTDNAQDFYDWLQETDVDLSGVKFAVFGLGNKTYEHFNAMGKYVDKRLEQLGAQRIFELGLGDDDGNLEEDFITWREQFWPAVCEHFGVEATGEESSIRQYELVVHTDIDAAKVYMGEMGRLKSYENQKPPFDAKNPFLAAVTTNRKLNQGTERHLMHLELDISDSKIRYESGDHVAVYPANDSALVNQLGKILGADLDVVMSLNNLDEESNKKHPFPCPTSYRTALTYYLDITNPPRTNVLYELAQYASEPSEQELLRKMASSSGEGKELYLSWVVEARRHILAILQDCPSLRPPIDHLCELLPRLQARYYSIASSSKVHPNSVHICAVVVEYETKAGRINKGVATNWLRAKEPAGENGGRALVPMFVRKSQFRLPFKATTPVIMVGPGTGVAPFIGFIQERAWLRQQGKEVGETLLYYGCRRSDEDYLYREELAQFHRDGALTQLNVAFSREQSHKVYVQHLLKQDREHLWKLIEGGAHIYVCGDARNMARDVQNTFYDIVAELGAMEHAQAVDYIKKLMTKGRYSLDVWS
Take B1: the binding result in assay [1] and in assay [2] was “no binding” each time.

For the origin of these results see article PMC3335857, “Heme Oxygenase Isoforms Differ in Their Subcellular Trafficking during Hypoxia and Are Differentially Modulated by Cytochrome P450 Reductase” (PLoS ONE, 2012).
